Source: patent US11666549B2, “Regulation of cancer using natural compounds and/or diet” (UNIVERSITY OF FLORIDA RESEARCH FOUNDATION, INC., priority 2013, dated 2023)
At least one structure is not confirmed: it was looked up by name or label, or the drawing left a doubt.

Test system: hGB cells
Test: Subcutaneous hGB xenograft, TMZ vs. mKD/NP
Details: TMZ 5 mg/kg daily or mKD/NP; vs controls; listed as SOC

Cn1nnc2c(C(N)=O)ncn2c1=O [TMZ, temozolomide]
progression free survival time: significant increase in progression free survival
